The nature of the assay: qHTS Assay for Lipid Storage Modulators in Drosophila S3 Cells.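 For cell number change: cells counted by Cell Tracker Red CMTPX staining in the red channel.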 The settings on record: BODIPY lipid droplet fluorescence, 18-24 h; for cell number change: measured here: cell count max response, cells fed with added oleic acid. Put shortly: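 Drosophila S3 cells loaded with oleic acid (400 uM, as added) and compounds at several concentrations; lipid droplets imaged by 488-nm laser-scanning cytometry, 500–530 nm intensity and object ratio to cell channel. Percent activity normalized to 20 uM Triacsin C.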
A general note: qHTS replaces the single test concentration by a dilution series.

Where [1] appears, read: measured here: cell number channel AC50, cells fed with added oleic acid.
Setting [2] is: measured here: lipid fluorescence (Fed channel) AC50, cells fed with added oleic acid.

Some of the results follow. The main result of the screen is listed elsewhere. These columns were measured beside it and carry no call. The list favours compounds with an active or inconclusive main result. Potencies come from curve fits of mixed quality, noted in brackets.

The text below walks through data of PubChem BioAssay AID2685 (National Center for Advancing Translational Sciences (NCATS), 2010).

What is called AC50 is the concentration giving half of the maximal activity seen. A low value points to activity at low concentration.

For `CCCN(CC(=O)Nc1ccc(C(N)=O)cc1)CC(=O)Nc1ccc(Cl)cc1Cl`, the cell number change turned out to be 54.5%. Further, under setting [1], the AC50 was 25.9 µM [rising, partial curve].

`Cc1ccccc1/C=N/n1c(-c2cc(-c3ccccc3)n[nH]2)n[nH]c1=S`: the cell number change is -43.2%. The concentration at half-maximal activity (AC50) under setting [1] is 18.4 µM [falling, partial curve, poor fit]. Further, the AC50 under setting [2] is 13 µM [falling, partial curve, poor fit].

Take `Cc1onc(-c2ccccc2)c1C(=O)N1CCOCC1`: the cell number change is -110%. In addition, under setting [1], the AC50 is 32.6 µM [falling, partial curve, poor fit].

Turning to `Oc1ccc2n[nH]nc2c1`, the cell number change worked out at 25.7%. In addition, the concentration at half-maximal activity (AC50) under setting [2] was 4.11 µM [rising, full curve].

On to `Cc1cc(C)c(S(=O)(=O)c2ccccc2C(=O)O)c(C)c1`, for which the cell number change was -24%. Moreover, the AC50 under setting [2] was 0.326 µM [falling, full curve, poor fit].

Consider `Cc1occc1C(=O)NC1CCCN(Cc2ccc(CC(C)C)cc2)C1` (stereo not drawn), for which the cell number change is -34.2%. Besides, the AC50 under setting [1] is 29.1 µM [falling, single point].

Consider `CCOC(=O)C(NCc1ccc2c(c1)OCO2)(NC(=O)CC)C(F)(F)F` (stereo not drawn), for which the cell number change is -8.56%. Also, the AC50 under setting [2] is 0.517 µM [falling, partial curve].

For the compound `CC(Oc1ccc(F)cc1)C(=O)N(CCC1=CCCCC1)c1c(N)n(Cc2ccccc2)c(=O)[nH]c1=O` (stereo not drawn), the cell number change turned out to be 124%. The concentration at half-maximal activity (AC50) under setting [1] is 18.4 µM [rising, partial curve].

Take `COC(=O)C(Cc1ccc(OC(=O)c2ccccc2Cl)cc1)N1Cc2ccccc2C1=O` (stereo not drawn): the cell number change is -20%.

For `Cc1ccc(NC(=O)CSc2nc3[nH]ncc3c(=O)[nH]2)cc1Cl`, the cell number change stood at 50.8%. The concentration at half-maximal activity (AC50) under setting [1] was 16.4 µM [rising, single point].

Take `Cc1ccc(Cl)cc1NC(=S)N(CCCN1CCOCC1)Cc1ccco1`: the cell number change came out at 13.2%. Also, the AC50 under setting [2] is 0.00461 µM [rising, full curve, poor fit].

On to `COc1ccc(/C(O)=C2/C(=O)C(=O)N(c3ncccn3)C2c2ccc(OC)c(OC)c2)cc1` (stereo not drawn), for which the cell number change was 9.04%. In addition, the AC50 under setting [2] is 16.4 µM [rising, single point].

On to `Cc1cccc(OCC(=O)OC(C)C(=O)Nc2ccc(Cl)cn2)c1` (stereo not drawn), for which the cell number change turned out to be 1.61%.

As for `CCC(C)(C)C1CCC2(CC1)NC(=O)N(CC(=O)NCCc1c[nH]c3ccccc13)C2=O` (stereo not drawn), the cell number change amounted to 2.69%. The AC50 under setting [1] is 6.51 µM [falling, single point]. Under setting [2], the AC50 was 1.3 µM [falling, full curve].

`Cc1c(C(=O)OCC2CCCO2)[nH]c2c1C(=O)CC(c1ccc(N(C)C)cc1)C2` (stereo not drawn): the cell number change is -10.7%. The AC50 under setting [2] was 16.4 µM [falling, single point].

Turning to `CCOc1cccc(C(=O)Nc2nnc(-c3cccs3)s2)c1`, the cell number change is -0.175%.

For `C/C(=N/Nc1cc(-c2ccccc2)nc(-c2ccccc2)n1)c1ccc(O)cc1`, the cell number change is -63.4%. Further, the AC50 under setting [1] is 25.9 µM [falling, partial curve, poor fit].

Take `COc1ccc(OC)c(C2c3[nH]c4ccccc4c3C[C@H]3C(=O)N(C4CC4)CC(=O)N23)c1` (stereo partly drawn): the cell number change turned out to be 24.8%. Moreover, the AC50 under setting [2] is 2.59 µM [rising, full curve, poor fit].

Turning to `O=C(Nc1cccnc1Cl)c1cccs1`, the cell number change came out at 9.13%. The AC50 under setting [2] was 29.1 µM [rising, single point].

As for `COc1ccc(Cl)cc1N1C(=O)C2CCCN2C1c1ccc(F)c(F)c1` (stereo not drawn), the cell number change was -16.2%. Moreover, the AC50 under setting [2] was 0.082 µM [rising, full curve].

On to `O=C1C=CC(=O)N1`, for which the cell number change is -71.1%. Besides, the AC50 under setting [1] is 23.1 µM [falling, partial curve]. Further, the AC50 under setting [2] was 18.4 µM [falling, partial curve].

For `COC(=O)c1ccc(CNC(=O)CSC2=NCCS2)cc1`, the cell number change worked out at 30.5%. In addition, under setting [1], the AC50 is 14.6 µM [rising, single point].

On to `CCOc1ccc(N(CC(=O)N2CCOCC2)S(=O)(=O)c2ccc(SC)cc2)cc1`, for which the cell number change worked out at 4.2%.

Consider `COc1ccc(OC)c(S(=O)(=O)N2CCC(C(=O)N3CCN(Cc4ccccc4)CC3)CC2)c1`, for which the AC50 under setting [2] was 2.06 µM [falling, partial curve].

For the compound `O=C(NCc1ccccc1)c1ccc(=O)[nH]n1`, the cell number change was 2.37%.

Regarding `Cc1ccccc1N(CC(=O)N/N=C/c1cc(C)n(-c2ccccc2C)c1C)S(C)(=O)=O`, the cell number change was -2.8%. In addition, under setting [2], the AC50 is 0.58 µM [falling, single point].

Regarding `OCC[C@@H]1C[C@@H](O)[C@H](O)[C@]2(OCCc3ccccc32)O1`, the cell number change was determined as 27.8%. Also, under setting [2], the AC50 was 0.58 µM [rising, single point].

Consider `O=C(NCC1CCCN1S(=O)(=O)c1cccs1)c1ccc(Cl)cc1` (stereo not drawn), for which the cell number change was -18.9%.

`CCc1c(C)c2ccc(OCC(=O)NCC3CCC(C(=O)O)CC3)cc2oc1=O` (stereo not drawn): the cell number change worked out at 0.581%. Further, the AC50 under setting [2] is 29.1 µM [rising, single point].

In the case of `Cc1nc2ccc(NC(=O)N3CCCCC3)cc2s1`, the cell number change was -3.5%.

In the case of `CCN(CC(=O)Nc1cccc(OC)c1)C(=O)C1CCN(C(=O)Nc2ccccc2)CC1`, the cell number change is -18.1%. For the same compound, the AC50 under setting [1] was 1.16 µM [rising, full curve]. In addition, under setting [2], the AC50 is 1.16 µM [rising, full curve, poor fit].

On to `CC(=O)c1ccc(N2CCN(c3ccc(S(=O)(=O)NCCN(C)C)cc3[N+](=O)[O-])CC2)cc1`, for which the cell number change was -7.28%.

Turning to `Cc1ccc(NC(=O)CSc2cccc3cccnc23)c(C)c1`, the cell number change was -28.3%. Moreover, under setting [1], the AC50 was 0.0651 µM [falling, full curve, poor fit].

For the compound `COc1ccc(-c2ccc(SCC(=O)Nc3nnc(C)s3)nn2)cc1`, the cell number change is 68.9%. For the same compound, the AC50 under setting [1] was 20.6 µM [rising, single point].

Turning to `CN(C)CCSc1nnc(-c2ccccc2)o1`, the cell number change is -80.8%. Also, the AC50 under setting [1] is 7.31 µM [falling, partial curve].

With `COc1cccc(C2=NN(C(=O)c3ccccc3)C(O)(C(F)(F)F)C2)c1` (stereo not drawn), the cell number change was 5.11%. Also, under setting [1], the AC50 was 2.06 µM [rising, partial curve, poor fit].

For `Cc1cc(C)c(-c2csc(Cc3nc(-c4cc5ccccc5oc4=O)cs3)n2)cc1C`, the cell number change turned out to be 4.61%. Also, the AC50 under setting [2] is 0.092 µM [rising, full curve, poor fit].

Take `Cn1c(=O)c2cc(S(=O)(=O)N3CCC(c4ccccc4)CC3)ccc2n(C)c1=O`: the cell number change was found to be 9.92%.

In the case of `CCOC(=O)c1c(NC(=O)C2C3C=CC(C3)C2(C)C(=O)O)sc2c1CCCC2` (stereo not drawn), the cell number change worked out at 0.718%. Also, under setting [2], the AC50 was 2.59 µM [rising, full curve, poor fit].

In the case of `Cc1sc2nc(C(C)C)nc(SCC(=O)N3CCOCC3)c2c1C`, the cell number change came out at 18.8%. The AC50 under setting [2] is 0.00461 µM [rising, full curve, poor fit].

For the compound `O=C(N/N=C/c1ccc(N2CCCCC2)o1)C(O)(c1ccccc1)c1ccccc1`, the cell number change is -3.45%. Besides, the AC50 under setting [2] was 20.6 µM [falling, partial curve, poor fit].

In the case of `COc1cc(/C=C/C(=O)O)cc(S(=O)(=O)Nc2ccc(S(=O)(=O)N3CCCCC3)cc2)c1OC`, the cell number change was -6.34%. Besides, the AC50 under setting [2] was 29.1 µM [rising, single point].

Consider `Cc1cc(C)c2[nH]c(C(=O)Nc3ccc4c(c3)OCO4)cc2c1`, for which the cell number change was 13.8%. For the same compound, under setting [2], the AC50 was 1.84 µM [rising, full curve, poor fit].

Regarding `Cc1ccc(S(=O)(=O)N(C)CC(=O)Oc2ccc(-c3nnco3)cc2)cc1`, the cell number change is -4.17%. Also, the AC50 under setting [2] was 0.461 µM [rising, single point].

As to `CCCN1CCN(C(=O)c2cc(COc3ccc4ncccc4c3)on2)CC1`, the cell number change was -17%. Also, under setting [2], the AC50 was 18.4 µM [falling, single point].

`O=c1[nH]c2c(Br)cnc([N+](=O)[O-])c2[nH]1`: the cell number change is -13.2%. For the same compound, the AC50 under setting [2] was 1.03 µM [falling, full curve].

In the case of `CC(C)N(c1ccccc1)c1ccc(NC(=O)C2CCCO2)cc1` (stereo not drawn), the cell number change is -58.5%. Moreover, the AC50 under setting [1] is 20.6 µM [falling, single point]. Moreover, the AC50 under setting [2] is 29.1 µM [falling, partial curve].

Consider `COC(=O)c1ccc(CN2CCCC(C(=O)Nc3cccc(-n4cnnn4)c3)C2)cc1` (stereo not drawn), for which the cell number change is -3.76%.

Consider `CCOC(=O)c1c(O)cc(C)cc1Nc1ccccc1`, for which the cell number change was 127%. Besides, the AC50 under setting [1] was 29.1 µM [rising, single point]. Also, under setting [2], the AC50 was 29.1 µM [rising, single point].

`CCOC(=O)Cn1c(=O)oc2cc(S(=O)(=O)N3CCCC(C)C3)ccc21` (stereo not drawn): the cell number change was determined as 21.5%. Under setting [2], the AC50 is 29.1 µM [rising, single point].

On to `Cc1cccn2c(=O)c3cc(C(=O)NC4CCCC4)c(=N)n(C4CCCC4)c3nc12`, for which the cell number change came out at 147%. Moreover, the AC50 under setting [1] is 4.61 µM [rising, full curve]. Under setting [2], the AC50 is 6.51 µM [rising, single point].

As for `Cc1nc(-c2cccc(NC(=O)COc3ccc(Cl)cc3)c2)cs1`, the cell number change was -6.36%. Under setting [2], the AC50 is 1.84 µM [rising, partial curve].

Take `C/C(=N\O)c1ccn(S(=O)(=O)c2ccc(Cl)cc2)c1`: under setting [2], the AC50 was 0.058 µM [falling, full curve, poor fit].

Consider `Cc1ccc(S(=O)(=O)N2CCOCC2)cc1NC(=O)CNc1ccccc1N1CCCC1=O`, for which the cell number change worked out at 138%. Under setting [1], the half-maximal activity concentration (AC50) is 18.4 µM [rising, single point].

Turning to `CCCNC(=O)CN1C(=O)NC(Cc2c[nH]c3ccccc23)C1=O` (stereo not drawn), under setting [2], the AC50 was 18.4 µM [falling, single point].

For the compound `Nc1cc(C(=O)OCC(=O)NNC(=O)c2cccs2)ccc1Cl`, the cell number change was 11.3%. The AC50 under setting [2] is 0.00461 µM [rising, full curve, poor fit].

Regarding `CCOCCCNC(=O)c1ccc2c(=O)n(Cc3ccc(OC)cc3)c(=O)[nH]c2c1`, the AC50 under setting [2] is 0.00411 µM [rising, full curve, poor fit].

Regarding `O=C(C[N+]12CC[N+](CC(=O)c3ccc(F)cc3)(CC1)CC2)c1ccc(F)cc1`, the cell number change was determined as 48.2%. The AC50 under setting [1] is 29.1 µM [rising, single point].

For the compound `COc1ccc(-c2nn(-c3ccccc3)cc2/C=N/Nc2ccccn2)cc1`, the cell number change was -25.2%. Moreover, the AC50 under setting [2] is 29.1 µM [falling, single point].

With `CC(=O)c1cccc(NC(=O)CN2CCN(S(=O)(=O)/C=C/c3ccccc3)CC2)c1`, the cell number change was -0.389%. The AC50 under setting [2] is 0.82 µM [rising, full curve, poor fit].
